# Earlier results as cited in US20020164581A1 (priority 2001, published 2002).
# At least one compound was matched to its structure with a doubt left.
# Tested on: LDL
# Conditions: 5-50 μM; oxidation by copper ions, monocytes, or endothelial cells; cited from earlier work
smiles,measurement,value
C[C@]12CC[C@@H]3c4ccc(O)cc4CC[C@H]3[C@@H]1CCC2=O [estrone],effect on LDL oxidation,inhibit LDL oxidation
